No constants are given. Whether binding was seen depends on the method and setting. Some results given as binding are weak or reduced against the parent protein; the word gives no strength.

The target of test [1] is T1, GPRC6a (OstR), mouse, on Leydig cells of testis sections (mouse) (UniProt Q8K4Z6).
T1 sequence (looked up): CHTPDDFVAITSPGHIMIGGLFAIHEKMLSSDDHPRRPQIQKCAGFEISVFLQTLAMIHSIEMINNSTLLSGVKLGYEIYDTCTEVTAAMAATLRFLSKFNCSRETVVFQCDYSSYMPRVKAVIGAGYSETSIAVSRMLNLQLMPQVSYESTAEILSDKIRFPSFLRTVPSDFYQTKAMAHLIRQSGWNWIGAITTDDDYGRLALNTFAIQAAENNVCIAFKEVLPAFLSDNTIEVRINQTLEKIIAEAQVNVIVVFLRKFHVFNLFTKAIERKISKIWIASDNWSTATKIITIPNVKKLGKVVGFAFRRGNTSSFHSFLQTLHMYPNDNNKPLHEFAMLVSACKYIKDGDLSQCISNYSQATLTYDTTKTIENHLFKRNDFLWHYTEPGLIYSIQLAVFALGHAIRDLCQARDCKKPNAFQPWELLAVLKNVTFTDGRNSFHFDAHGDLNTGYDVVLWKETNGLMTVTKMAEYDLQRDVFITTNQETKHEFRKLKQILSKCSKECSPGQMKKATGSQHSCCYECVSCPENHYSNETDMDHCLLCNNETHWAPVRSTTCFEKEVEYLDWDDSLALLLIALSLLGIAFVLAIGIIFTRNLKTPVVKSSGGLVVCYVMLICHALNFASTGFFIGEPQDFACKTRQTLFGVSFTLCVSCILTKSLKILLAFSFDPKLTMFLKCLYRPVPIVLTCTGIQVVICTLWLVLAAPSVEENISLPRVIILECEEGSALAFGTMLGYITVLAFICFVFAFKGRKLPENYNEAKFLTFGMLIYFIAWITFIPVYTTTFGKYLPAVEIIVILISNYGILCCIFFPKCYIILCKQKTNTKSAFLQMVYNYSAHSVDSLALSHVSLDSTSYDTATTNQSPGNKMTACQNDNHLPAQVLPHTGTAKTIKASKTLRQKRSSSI
In words: biotinylated osteocalcin on frozen mouse testis sections, avidin-biotin/DAB detection; no binding detected on GPRC6a-deficient testes.

Test [2] addresses T1, GPRC6a (OstR), mouse, on Leydig cells of testis sections (mouse). The test is described as follows: heading of the legend of FIG. 15; panel I shows testis sections stained with 10 nM b-osteocalcin.
Test [3] shares this target. In words: competition with biotinylated osteocalcin on mouse testis sections.

B1: biotinylated osteocalcin (ligand, UniProt P86546 50-95, looked up)
chain: YLGASVPSPDPLEPTREQCELNPACDELSDQYGLKTAYKRIYGITI
modifications: biotinylated (site of the biotin not stated)
Take B1: the binding result in test [1] and in test [2] was “binds” in each case.

B2: uncarboxylated osteocalcin (recombinant, bacterially produced) (ligand, UniProt P86546 50-95, looked up)
chain: YLGASVPSPDPLEPTREQCELNPACDELSDQYGLKTAYKRIYGITI
As for B2, the binding result in test [3] is “binds”.

These data come from patent US20150111825A1.
